Some of the results follow. The main result of the screen is listed elsewhere. These columns were measured beside it and carry no call. The list favours compounds with an active or inconclusive main result. The note in brackets gives the kind of curve behind each potency; many fits are weak.
Test: qHTS Assay for Modulators of Lamin A Splicing
Conditions: HeLa LMNA splicing GFP/RFP minigene ratio, 48 h
Method in brief: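 Read-out is the ratio of GFP to DsRed2 object intensity, acquired by 488 nm laser-scanning cytometry on HeLa lamin A-EGFP minigene reporter cells. Compound incubation 48 hrs at 37 °C in Opti-MEM with 2% FBS; DMSO 0.5% final.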

[1] = measured here: RFP viability control channel
[2] = measured here: GFP splicing reporter channel

| SMILES | AC50 [1] | AC50 [2] |
| --- | --- | --- |
| COc1ccc2nc(N(Cc3cccnc3)C(=O)COc3ccccc3)sc2c1 | 0.141 µM [falling, full curve, poor fit] | – |
| CCN(CC)S(=O)(=O)c1ccc(NS(=O)(=O)c2ccc(F)cc2)cc1 | – | 0.01 µM [rising, full curve, poor fit] |
| O=S(=O)(c1ccc(-c2cnc(C3CC3)o2)cc1)N1CCN(c2cccc(Cl)c2)CC1 | 0.00562 µM [falling, full curve, poor fit] | – |
| C=CCn1c(-c2cccnc2Cl)nc2cc(Cl)c(Cl)cc21 | 11.2 µM [rising, partial curve, poor fit] | 3.98 µM [rising, partial curve, poor fit] |
| O=C(CCc1c[nH]c2ccccc12)N1CCN(c2ccc(F)cc2)CC1 | 3.98 µM [rising, partial curve, poor fit] | – |
| CCCOc1ccc(Cc2nn3c(=O)/c(=C/c4ccco4)sc3nc2=O)cc1 | 25.1 µM [falling, single point] | 22.4 µM [falling, single point] |
| COc1ccc(C(=NNc2ccccc2C(=O)O)c2ccc(OC)cc2)cc1 | – | 15.8 µM [rising, single point] |
| N=c1ccn2c(n1)OC1C(O)C(CO)OC12 (stereo not given) | 0.447 µM [rising, full curve, poor fit] | 0.0891 µM [falling, full curve] |
| O=C(N/N=C/c1ccc(O)cc1)c1[nH]c2ccc(Br)cc2c1-c1ccccc1 | 3.98 µM [rising, partial curve] | – |
| CCn1c(C(=O)N2CCCC(C(=O)NCCCc3ccccc3)C2)cc2sccc21 (stereo not given) | 11.2 µM [rising, partial curve] | – |
| Cc1ccc(C(=O)Nc2onc(C)c2C#N)cc1 | 8.91 µM [rising, partial curve] | – |
| O=C(OCc1ccccc1)c1cccnc1 | 1 µM [falling, partial curve, poor fit] | 0.224 µM [falling, full curve, poor fit] |
| CC(=O)Oc1cc(C)c(OC(C)=O)c2ccccc12 | 0.000794 µM [rising, full curve, poor fit] | – |
| COc1ccc(CC(=O)NCc2nc(-c3ccccc3)no2)cc1 | – | 7.94 µM [rising, partial curve, poor fit] |
| CC(=O)Nc1ccc(NC(=O)CCC(=O)c2ccc(C)cc2)cc1 | – | 31.6 µM [falling, partial curve] |
| CC1=CCC2COC(c3ccc[n+](Cc4ccccc4)c3)C1C2 (stereo not given) | 12.6 µM [rising, partial curve] | – |

Record cards (already shown). Order of values: AC50 [1] | AC50 [2]
CC(=O)Oc1cc(C)c(OC(C)=O)c2ccccc12 in the list: 0.000794 µM [rising, full curve, poor fit] | –
O=C(CCc1c[nH]c2ccccc12)N1CCN(c2ccc(F)cc2)CC1 in the list: 3.98 µM [rising, partial curve, poor fit] | –

— PubChem BioAssay AID1487 (National Center for Advancing Translational Sciences (NCATS), 2009)
